# From the supplement of paper PMC11438910
# The list shows a part of the results. The signal is at background level for most entries.
# B1: 3S41.4 (protein)
# chain 1: EVQLVESGGGLVQPGGSLRLSCATSGFTFSNYWMYWFRQAPGKGLEWVSTISGSSTNTYYSGSVKGRFTISRDNAKNTLYLQMNSLRAEDTAVYYCARRGTDSSHWYFDLWGPGTPITVSS
# chain 2: EIVMTQSPATLSLSPGERATLSCRASQSVSSNLAWYQQKPGQGPRLLIYDASNRATGIPDRFGGSGSGTDFTLTISSLEPEDVGVYYCQQESNWPLTFGGGTKVEIK
# What was measured:
# Assay in all cases: fluorescence intensity of antibody binding to polysaccharide-coupled beads; higher = stronger binding
# [1] = molecular target: pneumococcal polysaccharide Pn19B
# [2] = molecular target: pneumococcal polysaccharide Pn19C
# [3] = molecular target: pneumococcal polysaccharide Pn19F
# [4] = molecular target: pneumococcal polysaccharide Pn2
# [5] = molecular target: pneumococcal polysaccharide Pn20A
# [6] = molecular target: pneumococcal polysaccharide Pn20B
# [7] = molecular target: pneumococcal polysaccharide Pn21
# [8] = molecular target: pneumococcal polysaccharide Pn22A
# [9] = molecular target: pneumococcal polysaccharide Pn22F
# [10] = molecular target: pneumococcal polysaccharide Pn23A
# [11] = molecular target: pneumococcal polysaccharide Pn23B
# [12] = molecular target: pneumococcal polysaccharide Pn23F
# [13] = antibody concentration 0.1 ng/mL
# [14] = antibody concentration 0.534724 ng/mL
# [15] = antibody concentration 2.8593 ng/mL
# [16] = antibody concentration 15.2894 ng/mL
# [17] = antibody concentration 81.7561 ng/mL
# [18] = antibody concentration 437.17 ng/mL
# [19] = antibody concentration 2337.65 ng/mL
# [20] = antibody concentration 12500 ng/mL
binder,measurement,setting,value
B1,fluorescence intensity,[1]; [13],31 MFI
same,fluorescence intensity,[1]; [14],26.8 MFI
same,fluorescence intensity,[1]; [15],27.8 MFI
same,fluorescence intensity,[1]; [16],28 MFI
same,fluorescence intensity,[1]; [17],27 MFI
same,fluorescence intensity,[1]; [18],30.2 MFI
same,fluorescence intensity,[1]; [19],45.5 MFI
same,fluorescence intensity,[1]; [20],152 MFI
same,fluorescence intensity,[2]; [13],27.5 MFI
same,fluorescence intensity,[2]; [14],25 MFI
same,fluorescence intensity,[2]; [15],23.8 MFI
same,fluorescence intensity,[2]; [16],27.5 MFI
same,fluorescence intensity,[2]; [17],26 MFI
same,fluorescence intensity,[2]; [18],25.5 MFI
same,fluorescence intensity,[2]; [19],35.2 MFI
same,fluorescence intensity,[2]; [20],108 MFI
same,fluorescence intensity,[3]; [13],25 MFI
same,fluorescence intensity,[3]; [14],23.2 MFI
same,fluorescence intensity,[3]; [15],24 MFI
same,fluorescence intensity,[3]; [16],24.8 MFI
same,fluorescence intensity,[3]; [17],25 MFI
same,fluorescence intensity,[3]; [18],26.5 MFI
same,fluorescence intensity,[3]; [19],30 MFI
same,fluorescence intensity,[3]; [20],47.5 MFI
same,fluorescence intensity,[4]; [13],17.8 MFI
same,fluorescence intensity,[4]; [14],18 MFI
same,fluorescence intensity,[4]; [15],22 MFI
same,fluorescence intensity,[4]; [16],18 MFI
same,fluorescence intensity,[4]; [17],20.8 MFI
same,fluorescence intensity,[4]; [18],18.8 MFI
same,fluorescence intensity,[4]; [19],23.5 MFI
same,fluorescence intensity,[4]; [20],33.5 MFI
same,fluorescence intensity,[5]; [13],24.5 MFI
same,fluorescence intensity,[5]; [14],22.5 MFI
same,fluorescence intensity,[5]; [15],22.5 MFI
same,fluorescence intensity,[5]; [16],22.5 MFI
same,fluorescence intensity,[5]; [17],21.2 MFI
same,fluorescence intensity,[5]; [18],22.5 MFI
same,fluorescence intensity,[5]; [19],35 MFI
same,fluorescence intensity,[5]; [20],110 MFI
same,fluorescence intensity,[6]; [13],23.8 MFI
same,fluorescence intensity,[6]; [14],22.5 MFI
same,fluorescence intensity,[6]; [15],22.5 MFI
same,fluorescence intensity,[6]; [16],23.2 MFI
same,fluorescence intensity,[6]; [17],23.5 MFI
same,fluorescence intensity,[6]; [18],23.5 MFI
same,fluorescence intensity,[6]; [19],27 MFI
same,fluorescence intensity,[6]; [20],43 MFI
same,fluorescence intensity,[7]; [13],20 MFI
same,fluorescence intensity,[7]; [14],17.5 MFI
same,fluorescence intensity,[7]; [15],19 MFI
same,fluorescence intensity,[7]; [16],19 MFI
same,fluorescence intensity,[7]; [17],18 MFI
same,fluorescence intensity,[7]; [18],19 MFI
same,fluorescence intensity,[7]; [19],20 MFI
same,fluorescence intensity,[7]; [20],26.5 MFI
same,fluorescence intensity,[8]; [13],22 MFI
same,fluorescence intensity,[8]; [14],19.5 MFI
same,fluorescence intensity,[8]; [15],20.2 MFI
same,fluorescence intensity,[8]; [16],20 MFI
same,fluorescence intensity,[8]; [17],21.8 MFI
same,fluorescence intensity,[8]; [18],21.8 MFI
same,fluorescence intensity,[8]; [19],26.2 MFI
same,fluorescence intensity,[8]; [20],56.8 MFI
same,fluorescence intensity,[9]; [13],30.5 MFI
same,fluorescence intensity,[9]; [14],30 MFI
same,fluorescence intensity,[9]; [15],26.2 MFI
same,fluorescence intensity,[9]; [16],33.5 MFI
same,fluorescence intensity,[9]; [17],31.5 MFI
same,fluorescence intensity,[9]; [18],32 MFI
same,fluorescence intensity,[9]; [19],30 MFI
same,fluorescence intensity,[9]; [20],43 MFI
same,fluorescence intensity,[10]; [13],22.5 MFI
same,fluorescence intensity,[10]; [14],25.5 MFI
same,fluorescence intensity,[10]; [15],25 MFI
same,fluorescence intensity,[10]; [16],24.5 MFI
same,fluorescence intensity,[10]; [17],24 MFI
same,fluorescence intensity,[10]; [18],29.5 MFI
same,fluorescence intensity,[10]; [19],44.5 MFI
same,fluorescence intensity,[10]; [20],75 MFI
same,fluorescence intensity,[11]; [13],30 MFI
same,fluorescence intensity,[11]; [14],28 MFI
same,fluorescence intensity,[11]; [15],29 MFI
same,fluorescence intensity,[11]; [16],27 MFI
same,fluorescence intensity,[11]; [17],28 MFI
same,fluorescence intensity,[11]; [18],31.8 MFI
same,fluorescence intensity,[11]; [19],32.5 MFI
same,fluorescence intensity,[11]; [20],47.2 MFI
same,fluorescence intensity,[12]; [13],16.2 MFI
same,fluorescence intensity,[12]; [14],15.5 MFI

# 17 successive records out of the list so far, quoted:
binder,measurement,setting,value
B1,fluorescence intensity,[2]; [17],26 MFI
same,fluorescence intensity,[2]; [18],25.5 MFI
same,fluorescence intensity,[2]; [19],35.2 MFI
same,fluorescence intensity,[2]; [20],108 MFI
same,fluorescence intensity,[3]; [13],25 MFI
same,fluorescence intensity,[3]; [14],23.2 MFI
same,fluorescence intensity,[3]; [15],24 MFI
same,fluorescence intensity,[3]; [16],24.8 MFI
same,fluorescence intensity,[3]; [17],25 MFI
same,fluorescence intensity,[3]; [18],26.5 MFI
same,fluorescence intensity,[3]; [19],30 MFI
same,fluorescence intensity,[3]; [20],47.5 MFI
same,fluorescence intensity,[4]; [13],17.8 MFI
same,fluorescence intensity,[4]; [14],18 MFI
same,fluorescence intensity,[4]; [15],22 MFI
same,fluorescence intensity,[4]; [16],18 MFI
same,fluorescence intensity,[4]; [17],20.8 MFI
